± gives the standard deviation of the averaged measurements. The list shows a part of the results, in another mix than the full data. Most values lie at the level of the controls, where differences are scatter.
Each target was assayed with Nc1ncnc2c1ncn2[C@@H]1O[C@H](COP(=O)(O)OP(=O)(O)NP(=O)(O)O)[C@@H](O)[C@H]1O [adenylyl imidodiphosphate] (assay: NP40-soluble protein abundance relative to vehicle (solubility fold change) (ratio); higher = more soluble protein in presence of AMP-PNP). Details: concentration: 0.5mM.
Outline: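 Values are fold changes against the detergent-processed vehicle, based on vsn-normalised intensities. Jurkat crude lysate was treated at eight concentrations from 0.1 to 10 mM (10 min at room temperature, then 3 min at 37 °C), solubilised with 0.8% NP40 and benzonase, ultracentrifuged and analysed by TMT-labelled LC-MS/MS over three independent experiments.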

Sequences of proteins named here, by UniProt entry; tags and fusion partners are left off. A change or cut given only in a name is not applied to a line headed by its entry.
UniProt Q8N668, whole entry: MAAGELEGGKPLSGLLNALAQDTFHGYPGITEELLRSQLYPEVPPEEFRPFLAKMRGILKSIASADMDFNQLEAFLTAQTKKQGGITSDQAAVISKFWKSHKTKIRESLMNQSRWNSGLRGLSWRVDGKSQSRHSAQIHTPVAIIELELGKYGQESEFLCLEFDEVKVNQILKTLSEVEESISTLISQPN
UniProt Q86UA6: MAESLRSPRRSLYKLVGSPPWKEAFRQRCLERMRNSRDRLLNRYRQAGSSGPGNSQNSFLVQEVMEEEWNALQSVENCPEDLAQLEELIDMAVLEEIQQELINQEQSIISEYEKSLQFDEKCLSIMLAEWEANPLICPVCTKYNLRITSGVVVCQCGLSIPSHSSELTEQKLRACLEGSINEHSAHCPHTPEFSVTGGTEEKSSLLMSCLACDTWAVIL
UniProt Q7Z7H5: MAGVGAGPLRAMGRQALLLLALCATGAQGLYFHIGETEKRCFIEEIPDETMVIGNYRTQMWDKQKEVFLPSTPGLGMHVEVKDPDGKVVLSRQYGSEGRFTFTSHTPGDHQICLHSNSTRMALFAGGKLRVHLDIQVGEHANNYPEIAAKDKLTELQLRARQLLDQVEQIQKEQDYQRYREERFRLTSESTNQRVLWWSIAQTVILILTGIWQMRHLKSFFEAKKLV
UniProt Q86X83, whole entry: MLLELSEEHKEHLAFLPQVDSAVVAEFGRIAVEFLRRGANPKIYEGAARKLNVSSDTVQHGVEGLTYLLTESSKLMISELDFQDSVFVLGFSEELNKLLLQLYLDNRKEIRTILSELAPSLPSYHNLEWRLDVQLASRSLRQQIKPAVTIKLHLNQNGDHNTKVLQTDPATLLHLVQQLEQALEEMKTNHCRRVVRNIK
UniProt Q8IZ83: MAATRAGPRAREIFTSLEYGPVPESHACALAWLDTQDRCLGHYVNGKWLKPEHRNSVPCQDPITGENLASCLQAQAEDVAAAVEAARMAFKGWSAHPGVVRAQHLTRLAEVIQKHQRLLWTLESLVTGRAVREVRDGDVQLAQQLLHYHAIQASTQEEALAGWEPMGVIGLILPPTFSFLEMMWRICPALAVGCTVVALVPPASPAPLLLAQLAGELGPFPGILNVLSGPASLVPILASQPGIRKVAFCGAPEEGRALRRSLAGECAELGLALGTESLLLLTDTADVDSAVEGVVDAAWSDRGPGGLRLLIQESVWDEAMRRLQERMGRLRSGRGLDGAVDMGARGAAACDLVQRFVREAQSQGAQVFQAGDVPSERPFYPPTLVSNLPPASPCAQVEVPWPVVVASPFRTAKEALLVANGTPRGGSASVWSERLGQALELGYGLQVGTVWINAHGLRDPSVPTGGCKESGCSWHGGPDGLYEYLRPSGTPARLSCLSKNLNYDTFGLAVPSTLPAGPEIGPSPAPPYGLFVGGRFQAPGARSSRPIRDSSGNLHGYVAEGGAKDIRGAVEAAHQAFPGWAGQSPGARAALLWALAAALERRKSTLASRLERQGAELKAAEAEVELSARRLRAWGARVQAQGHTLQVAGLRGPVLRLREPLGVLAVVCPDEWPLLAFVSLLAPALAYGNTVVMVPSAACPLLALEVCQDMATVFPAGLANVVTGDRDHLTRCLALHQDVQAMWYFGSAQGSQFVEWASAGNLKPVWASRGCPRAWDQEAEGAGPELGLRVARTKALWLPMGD
UniProt Q8IUX7: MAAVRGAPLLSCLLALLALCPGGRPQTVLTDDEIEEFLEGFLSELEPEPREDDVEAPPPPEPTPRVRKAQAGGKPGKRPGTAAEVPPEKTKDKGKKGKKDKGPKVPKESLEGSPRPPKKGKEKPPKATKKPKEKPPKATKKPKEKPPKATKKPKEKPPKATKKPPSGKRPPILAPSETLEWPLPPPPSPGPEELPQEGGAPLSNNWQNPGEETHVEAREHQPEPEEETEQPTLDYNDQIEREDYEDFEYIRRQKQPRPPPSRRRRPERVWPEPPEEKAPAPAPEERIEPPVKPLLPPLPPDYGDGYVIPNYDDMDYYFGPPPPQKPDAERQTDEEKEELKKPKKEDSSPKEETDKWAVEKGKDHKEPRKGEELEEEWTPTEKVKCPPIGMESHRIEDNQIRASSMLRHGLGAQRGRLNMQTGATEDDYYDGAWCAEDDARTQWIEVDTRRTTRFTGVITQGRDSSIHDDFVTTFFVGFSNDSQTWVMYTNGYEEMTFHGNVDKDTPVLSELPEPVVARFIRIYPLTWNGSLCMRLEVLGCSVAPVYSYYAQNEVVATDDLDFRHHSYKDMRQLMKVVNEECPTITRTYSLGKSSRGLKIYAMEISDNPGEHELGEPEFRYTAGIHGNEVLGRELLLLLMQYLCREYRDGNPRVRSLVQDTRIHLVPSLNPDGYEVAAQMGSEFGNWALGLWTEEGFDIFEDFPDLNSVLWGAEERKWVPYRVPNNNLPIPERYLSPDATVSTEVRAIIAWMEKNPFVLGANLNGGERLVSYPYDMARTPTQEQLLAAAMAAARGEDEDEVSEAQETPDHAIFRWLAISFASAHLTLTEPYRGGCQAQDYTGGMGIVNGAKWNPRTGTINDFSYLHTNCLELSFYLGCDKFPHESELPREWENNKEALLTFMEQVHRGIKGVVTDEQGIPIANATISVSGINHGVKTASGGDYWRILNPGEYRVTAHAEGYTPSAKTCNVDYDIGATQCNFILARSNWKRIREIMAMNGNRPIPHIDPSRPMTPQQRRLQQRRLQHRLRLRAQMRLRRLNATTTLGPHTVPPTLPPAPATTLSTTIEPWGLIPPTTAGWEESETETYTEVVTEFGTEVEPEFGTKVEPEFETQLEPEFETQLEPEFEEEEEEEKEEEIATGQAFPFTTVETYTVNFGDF
UniProt Q8IXI1, whole entry, looked up: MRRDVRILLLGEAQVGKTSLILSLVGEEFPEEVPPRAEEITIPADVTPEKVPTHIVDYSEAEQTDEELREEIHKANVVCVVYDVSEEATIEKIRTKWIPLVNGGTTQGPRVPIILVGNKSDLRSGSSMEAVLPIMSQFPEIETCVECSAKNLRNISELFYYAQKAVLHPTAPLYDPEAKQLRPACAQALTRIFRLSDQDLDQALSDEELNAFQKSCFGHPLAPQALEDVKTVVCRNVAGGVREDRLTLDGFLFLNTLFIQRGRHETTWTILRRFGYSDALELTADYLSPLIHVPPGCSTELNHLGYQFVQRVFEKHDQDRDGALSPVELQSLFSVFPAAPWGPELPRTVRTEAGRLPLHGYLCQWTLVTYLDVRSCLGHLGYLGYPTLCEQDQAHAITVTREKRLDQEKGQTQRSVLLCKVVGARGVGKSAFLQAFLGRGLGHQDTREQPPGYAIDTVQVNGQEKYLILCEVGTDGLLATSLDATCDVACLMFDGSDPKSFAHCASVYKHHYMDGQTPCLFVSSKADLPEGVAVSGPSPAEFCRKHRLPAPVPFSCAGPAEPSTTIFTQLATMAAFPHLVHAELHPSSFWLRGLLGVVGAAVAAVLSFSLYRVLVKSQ
UniProt Q8N9V3: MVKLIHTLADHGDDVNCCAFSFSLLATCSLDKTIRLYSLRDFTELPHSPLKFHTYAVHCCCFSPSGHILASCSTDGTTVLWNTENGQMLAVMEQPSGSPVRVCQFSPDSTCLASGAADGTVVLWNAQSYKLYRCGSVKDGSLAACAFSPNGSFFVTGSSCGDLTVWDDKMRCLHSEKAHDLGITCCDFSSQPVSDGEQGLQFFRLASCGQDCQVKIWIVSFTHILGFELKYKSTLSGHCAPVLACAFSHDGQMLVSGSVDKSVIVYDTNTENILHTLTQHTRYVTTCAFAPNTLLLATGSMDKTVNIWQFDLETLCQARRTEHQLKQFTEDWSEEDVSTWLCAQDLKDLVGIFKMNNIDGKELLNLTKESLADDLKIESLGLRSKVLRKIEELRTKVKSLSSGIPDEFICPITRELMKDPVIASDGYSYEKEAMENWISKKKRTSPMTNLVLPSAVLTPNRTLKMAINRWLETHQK
UniProt Q8N488: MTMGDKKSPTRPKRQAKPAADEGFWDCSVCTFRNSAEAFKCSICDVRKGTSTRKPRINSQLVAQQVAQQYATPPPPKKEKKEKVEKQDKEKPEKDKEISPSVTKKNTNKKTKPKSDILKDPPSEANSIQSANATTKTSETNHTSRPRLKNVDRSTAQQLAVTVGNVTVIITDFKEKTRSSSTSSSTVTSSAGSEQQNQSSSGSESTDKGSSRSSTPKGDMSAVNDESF
UniProt Q8IYU8: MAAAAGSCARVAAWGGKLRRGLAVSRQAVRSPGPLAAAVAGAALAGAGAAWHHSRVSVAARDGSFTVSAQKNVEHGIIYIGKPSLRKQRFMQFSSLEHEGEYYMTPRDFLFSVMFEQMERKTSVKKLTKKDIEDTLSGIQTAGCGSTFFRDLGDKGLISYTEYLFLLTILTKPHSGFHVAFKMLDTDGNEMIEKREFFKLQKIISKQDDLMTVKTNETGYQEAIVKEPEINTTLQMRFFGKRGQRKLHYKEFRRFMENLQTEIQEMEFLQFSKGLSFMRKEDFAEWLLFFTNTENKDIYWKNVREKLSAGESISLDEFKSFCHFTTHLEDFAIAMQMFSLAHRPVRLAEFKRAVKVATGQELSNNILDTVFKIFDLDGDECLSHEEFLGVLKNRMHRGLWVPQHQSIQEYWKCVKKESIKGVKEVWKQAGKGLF
UniProt Q8IYS1: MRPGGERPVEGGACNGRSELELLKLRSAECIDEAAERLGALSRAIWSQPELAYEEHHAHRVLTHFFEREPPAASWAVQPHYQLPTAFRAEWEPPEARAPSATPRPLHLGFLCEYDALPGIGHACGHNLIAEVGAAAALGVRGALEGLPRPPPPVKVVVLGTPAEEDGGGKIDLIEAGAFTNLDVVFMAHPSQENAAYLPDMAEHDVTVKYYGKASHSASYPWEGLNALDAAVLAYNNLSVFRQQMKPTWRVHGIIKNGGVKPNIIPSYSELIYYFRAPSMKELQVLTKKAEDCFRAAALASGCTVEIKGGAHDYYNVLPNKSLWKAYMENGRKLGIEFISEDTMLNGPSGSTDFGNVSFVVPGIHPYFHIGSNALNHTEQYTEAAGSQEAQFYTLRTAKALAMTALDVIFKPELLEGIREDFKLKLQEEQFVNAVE
UniProt Q86UE4: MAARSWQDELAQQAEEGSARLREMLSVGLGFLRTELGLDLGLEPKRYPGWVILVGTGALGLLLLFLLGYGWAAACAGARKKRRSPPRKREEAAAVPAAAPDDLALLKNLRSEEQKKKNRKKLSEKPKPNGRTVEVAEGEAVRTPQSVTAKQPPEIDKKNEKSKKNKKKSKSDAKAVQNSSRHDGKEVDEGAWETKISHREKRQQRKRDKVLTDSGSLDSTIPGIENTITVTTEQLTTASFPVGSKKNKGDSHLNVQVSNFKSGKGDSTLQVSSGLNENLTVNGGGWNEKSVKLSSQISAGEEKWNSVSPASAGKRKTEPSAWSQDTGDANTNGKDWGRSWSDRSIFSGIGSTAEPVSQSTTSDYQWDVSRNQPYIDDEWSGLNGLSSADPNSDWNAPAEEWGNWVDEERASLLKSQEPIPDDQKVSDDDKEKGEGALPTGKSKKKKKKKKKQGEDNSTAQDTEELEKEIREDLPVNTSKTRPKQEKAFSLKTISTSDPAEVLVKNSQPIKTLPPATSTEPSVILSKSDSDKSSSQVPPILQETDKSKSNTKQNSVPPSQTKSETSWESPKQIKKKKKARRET
UniProt Q8N3F8: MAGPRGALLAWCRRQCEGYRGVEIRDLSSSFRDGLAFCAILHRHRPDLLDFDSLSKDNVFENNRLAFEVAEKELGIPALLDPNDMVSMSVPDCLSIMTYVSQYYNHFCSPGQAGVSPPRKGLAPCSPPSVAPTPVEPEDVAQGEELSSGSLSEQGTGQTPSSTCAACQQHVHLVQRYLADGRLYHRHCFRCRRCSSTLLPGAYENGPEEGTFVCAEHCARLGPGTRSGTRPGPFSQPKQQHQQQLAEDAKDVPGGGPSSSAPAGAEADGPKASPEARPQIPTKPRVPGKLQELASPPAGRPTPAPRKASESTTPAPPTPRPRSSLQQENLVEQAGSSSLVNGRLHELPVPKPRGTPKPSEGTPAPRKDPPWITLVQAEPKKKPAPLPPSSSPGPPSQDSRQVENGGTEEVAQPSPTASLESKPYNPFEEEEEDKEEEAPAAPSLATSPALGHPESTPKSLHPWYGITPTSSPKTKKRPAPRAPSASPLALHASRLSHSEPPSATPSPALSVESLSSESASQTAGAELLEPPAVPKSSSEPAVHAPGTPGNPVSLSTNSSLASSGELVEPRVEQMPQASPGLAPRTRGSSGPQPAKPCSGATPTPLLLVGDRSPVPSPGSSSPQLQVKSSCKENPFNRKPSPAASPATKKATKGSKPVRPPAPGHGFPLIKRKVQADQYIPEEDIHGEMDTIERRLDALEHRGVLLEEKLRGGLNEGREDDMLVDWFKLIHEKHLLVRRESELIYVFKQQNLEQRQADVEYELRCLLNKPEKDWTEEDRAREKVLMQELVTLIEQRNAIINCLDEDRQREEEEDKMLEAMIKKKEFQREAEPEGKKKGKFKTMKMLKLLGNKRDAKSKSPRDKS

Target	NP40-soluble protein abundance
COMMD1 (UniProt Q8N668)	0.9754 ± 0.0056
UniProt Q86UA6 and related entries	0.989 ± 0.015
UniProt Q8NBN3 and related entries	0.9694 ± 0.0032
ANKMY2 (UniProt Q8IV38)	1 ± 0.034
TMED4 (UniProt Q7Z7H5)	1.03 ± 0.013
UniProt Q86X83 and related entries	0.991 ± 0.071
UniProt Q8IZ83 and related entries	0.987 ± 0.037
UniProt Q8IUX7	0.955 ± 0.01
RHOT2 (UniProt Q8IXI1)	1 ± 0.017
GSPT2 (UniProt Q8IYD1)	1.05 ± 0.071
UniProt Q7Z7F0	1.02 ± 0.063
UniProt Q8N6M0 and related entries	1.05 ± 0.045
UniProt Q8N9V3 and related entries	0.967 ± 0.049
UniProt Q8IVW6 and related entries	1.01 ± 0.076
RYBP (UniProt Q8N488)	1.02 ± 0.036
UniProt Q8IUD2 and related entries	0.969 ± 0.03
UniProt Q8IYU8 and related entries	0.974 ± 0.018
UniProt Q8IXQ6-2|Q8IXQ6-3|G5E9U8 and related entries	0.978 ± 0.063
PM20D2 (UniProt Q8IYS1)	1.01 ± 0.076
MTDH (UniProt Q86UE4)	1.06 ± 0.052
MICALL1 (UniProt Q8N3F8)	0.968 ± 0.028
